Assay results from PubChem BioAssay AID540276 (National Center for Advancing Translational Sciences (NCATS), 2011).
Where “and” joins values, the source holds several entries; their conditions need not be identical. Identical values can stand only once. In all, about 300,000 compounds went through this assay and about 5,400 (1.8%) were called active. Inconclusive means that the source gave no clear call. Such entries were picked first, then a sample of the others. Calls come from the whole dose curve; tested in HEK293 cells. Potencies beside an inconclusive call are fits to weak or partial responses and may not hold up.

assay: qHTS for inhibitors of binding or entry into cells for Marburg Virus; details: Marburg virus pseudotyped entry inhibition, cell reporter; activity change, negative = inhibition: at 37.8 µM (top of the series) unless noted
% is set by controls: 0 for no effect and ±100 for the full control effect; potency is the fitted concentration of half-maximal effect.

Row | SMILES | Potency | activity change, negative = inhibition
1 | COc1ccc(OC)c2[nH]c(=O)c(CCNC(=O)c3ccc(S(=O)(=O)N4CCCC4)cc3)cc12 | inconclusive: 14.1 µM [inhibitor, partial curve, poor fit] | –
2 | Cc1ccc(CN(C)C2CCN(C)CC2)cc1 | – | inactive: -38.7%
3 | CN(CC(=O)Nc1ccc(F)cc1)C(=O)c1cccc(S(=O)(=O)N2CCN(c3ccccc3)CC2)c1 | inconclusive: 2.82 µM [inhibitor, partial curve, poor fit] | –
4 | CCOC(=O)c1c(-c2ccc(C)o2)csc1NC(=S)NC(=O)N(C)C | inconclusive: 20.6 µM [inhibitor, single point] | –
5 | O=[N+]([O-])c1ccc(-c2nc(C(Cl)Cl)c3ccccc3n2)cc1 | inconclusive: 1.26 µM [inhibitor, partial curve, poor fit] | –
6 | Cc1ccc(C(C(=O)NC(C)(C)C)N(Cc2ccco2)C(=O)CCC(=O)Nc2ccccn2)cc1 (stereo unspecified) | inconclusive: 7.3 µM [inhibitor, full curve, poor fit] | –
7 | COc1ccc(-c2cn3cccnc3n2)cc1NC(=O)c1cc(OC)c(OC)c(OC)c1 | – | inactive: -0.201% [at 46.1 µM]
8 | O=C(c1cccc(F)c1)N1CCN(c2ccc([N+](=O)[O-])c(N3CCCCC3)c2)CC1 | – | inactive: -24%
9 | CCc1cc2c(cc3c(=O)n(CCCC(=O)NCc4cccc(Br)c4)ncn32)s1 | – | inactive: 0.461% [at 46.1 µM]
10 | CCOC(=O)C(C)(C)N(Cc1ccc(Cl)cc1)S(=O)(=O)c1ccc(Cl)c([N+](=O)[O-])c1 | inconclusive: 8.2 µM [inhibitor, partial curve, poor fit] | –
11 | CCOC(=O)C1=C(C)NC(C)=C(C(=O)OCC)C1C(=O)OCC(=O)NC(C)C | inconclusive: 1 µM [inhibitor, partial curve, poor fit] and inconclusive: 12.6 µM [inhibitor, single point] | –
12 | CCC(=O)Oc1ccc(C(=O)Nc2ccc3c(c2)OCO3)cc1 | inconclusive: 39.8 µM [inhibitor, single point] | –
13 | CCN(C1CCCCC1)S(=O)(=O)c1cc2c3c(c1)CCN3C(=O)CC2 | – | inactive: -1.53% [at 46.1 µM]
14 | O=C1CC(N2CCC(O)(c3ccc(Cl)cc3)CC2)C(=O)N1Cc1ccc(N2CCCC2=O)cc1 (stereo unspecified) | inactive | –
15 | COc1cccc(/C=C2\N=C(C3CCCCC3)OC2=O)c1OC | inconclusive: 1.12 µM [inhibitor, full curve, poor fit] | –
16 | O=C(NNC(=O)c1ccc2c(c1)OCO2)NC1CCCCC1 | inconclusive: 25.1 µM [activator, single point] | –
17 | O=C(N/N=C/c1ccc(OC(F)F)cc1OC(F)F)c1ccc(Br)cc1 | – | inactive: 7.02%
18 | CC(C)C[C@H](NC(=O)NCc1ccc(Cl)cc1)C(=O)O | – | inactive: 11.9%
19 | O=S(=O)(Cc1ccccc1)Nc1ccc(F)cc1 | inconclusive: 3.16 µM [activator, single point] | –
20 | COc1cc2c(cc1OC)C1O[C@](c3ccsc3)(C2)Oc2cc(C)n(Cc3ccccc3)c(=O)c21 | – | inactive: -14.3% [at 14.2 µM]
21 | Cc1cc(C)n(-c2ccc(C(=O)Nc3ccccn3)cc2)n1 | inconclusive: 29.1 µM [inhibitor, single point] | –
22 | Cc1ccc(C)c(NC(=O)CN(C)C(=O)c2cc3ccccc3o2)c1 | inconclusive: 6.31 µM [activator, single point] | –

Row | SMILES | Potency | activity change, negative = inhibition
23 | Cc1ccccc1OCCC(=O)N1CCN(S(=O)(=O)c2ccc(Cl)cc2)CC1 | inconclusive: 20 µM [inhibitor, single point] | –
24 | CC(=O)NC(c1cccs1)c1cc([N+](=O)[O-])c2cccnc2c1O (stereo unspecified) | inconclusive: 5.8 µM [inhibitor, partial curve] | –
25 | CCCCC12CN3CC(C)(CN(C1)C3c1c[nH]c3ccccc13)C2=O (stereo unspecified) | – | inactive: -22.5% [at 46.1 µM]
26 | O=c1[nH]n(Cc2ccccc2)c(=O)c2ccccc12 | – | inactive: 15.9%
27 | Fc1ccccc1CN1CCCN(C(=S)Nc2cccc(Cl)c2)C1 | inconclusive: 14.1 µM [inhibitor, partial curve, poor fit] | –
28 | Cc1ccc(NS(=O)(=O)c2ccc(NC(=O)CN(c3cc([N+](=O)[O-])ccc3C)S(C)(=O)=O)cc2)c(C)c1 | inconclusive: 35.5 µM [inhibitor, partial curve, poor fit] | –
29 | S=C(NCc1ccccc1)NC1CCCc2ccccc21 (stereo unspecified) | inconclusive: 8.91 µM [inhibitor, partial curve, poor fit] | –
30 | C/C(=N\N=c1/scc(C)n1Cc1ccco1)c1cccc([N+](=O)[O-])c1 | inconclusive: 0.708 µM [inhibitor, single point] | –
31 | COc1ccc(/C=N/NC(=O)CN(C2=NS(=O)(=O)c3ccccc32)c2ccccc2)cc1OC | inconclusive: 4.61 µM [inhibitor, partial curve, poor fit] | –
32 | Cc1cccc2nc(-c3ccccn3)c(Nc3ccc(F)cc3)n12 | inconclusive: 28.2 µM [inhibitor, partial curve, poor fit] | –
33 | CCCCOc1ccc(CSc2ncn[nH]2)cc1 | inconclusive: 35.5 µM [inhibitor, single point] | –
34 | N#Cc1ccc(C(=O)NC2CCCCCCC2)cc1 | inconclusive: 3.55 µM [activator, single point] | –
35 | O=C(Nc1cccc(F)c1)NC1CCCc2ccccc21 (stereo unspecified) | inconclusive: 35.5 µM [inhibitor, single point] | –
36 | O=C(/C=C/c1cccnc1)c1ccc(O)cc1 | inconclusive: 28.2 µM [inhibitor, single point] | –
37 | CCOC(=O)N1CCN(C(=O)CN(Cc2ccccc2)S(C)(=O)=O)CC1 | – | inactive: 0.124%
38 | Cc1cc(C)cc(NS(=O)(=O)c2ccc(NC(=S)Nc3ccccc3)cc2)c1 | – | inactive: 1.22%
39 | O=C(O)c1ccccc1N1C(=O)c2cccc3cccc(c23)C1=O | inconclusive: 1.26 µM [inhibitor, partial curve, poor fit] | –
40 | Cc1nc(-c2ccc(C(=O)NCCO)cc2)cs1 | – | inactive: 10.2% [at 46.1 µM]
41 | Cc1sc2ncnc(SCC(=O)c3ccc4c(c3)OCCO4)c2c1-c1ccccc1 | – | inactive: -14.5%
42 | CCCc1nc2cc(CC(=O)OC)ccc2o1 | – | inactive: 6.45%
43 | C=CCOC(=O)N[C@@H](CC(C)C)C(C(=O)OC)=C(C)NCc1ccccc1 | inconclusive: 0.15 µM [inhibitor, full curve, poor fit] | –
44 | CC1(OC(=O)CCc2ccccc2)C(=O)C=C2C=C(c3ccc(C#N)cc3)N(C(CO)CO)C=C2C1=O (stereo unspecified) | inconclusive: 0.0188 µM [activator, full curve, poor fit] | –

Row | SMILES | Potency | activity change, negative = inhibition
45 | Cc1ccc2nc(SCc3nc(-c4ccc(Cl)cc4)no3)[nH]c2c1 | inconclusive: 2.82 µM [activator, single point] | –
46 | COCCN(C(=O)c1ccco1)c1nnc(-c2ccc(F)cc2)s1 | inconclusive: 0.501 µM [inhibitor, full curve, poor fit] | –
47 | CCN(C(=O)COC(=O)c1ccc2c(c1)OCO2)c1ccccc1 | inconclusive: 35.5 µM [activator, single point] | –
48 | COc1cccc(OC)c1NC(=O)C1CCCN1C(=O)NCc1ccccc1 (stereo unspecified) | inconclusive: 7.3 µM [inhibitor, partial curve] | –
49 | CN(Cc1cccc(Cl)c1Cl)C(=O)c1ccccc1SCC(=O)N1CCCC1 | inconclusive: 22.4 µM [inhibitor, single point] | –
50 | COCCCn1c(=N)c(C(=O)NCC2CCCO2)cc2c(=O)n3cccc(C)c3nc21 (stereo unspecified) | inconclusive: 0.112 µM [inhibitor, full curve, poor fit] | –
51 | O=C(NCCCN1CCOCC1)C(=O)N/N=C/c1cccc2ccccc12 | – | inactive: 11.5% [at 46.1 µM]
52 | Cc1ccc(C23CC4CC(CC(CN)(C4)C2)C3)cc1 | inconclusive: 6.31 µM [inhibitor, partial curve, poor fit] | –
53 | Cc1cc(C)c(N=Cc2c(O)n(-c3nccs3)c(=O)c3ccccc23)c(C)c1 | inconclusive: 35.5 µM [inhibitor, single point] | –
54 | O=C(c1cc(-c2ccc(Cl)cc2Cl)on1)N1CCCC1 | inconclusive: 6.31 µM [inhibitor, full curve, poor fit] | –
55 | CC(=O)N1CCN(c2ccccc2NC(=O)COc2cc(C)ccc2C(C)C)CC1 | inconclusive: 6.31 µM [inhibitor, partial curve, poor fit] | –
56 | COc1cc(CO)ccc1OCc1ccc(Cl)nc1 | inconclusive: 14.1 µM [activator, partial curve, poor fit] | –
57 | CN1/C(=C\C=C2C(=O)NC(=S)NC2=O)C(C)(C)c2ccccc21 | inconclusive: 11.2 µM [inhibitor, partial curve] | –
58 | Cc1cc(/C=N/NC(=O)C(O)(c2ccccc2)c2ccccc2)c(C)n1-c1ccccc1 | – | inactive: -2.81%
59 | CC(C)(C)c1ccc(-c2noc(-c3ccc4c(c3)CCO4)n2)cc1 | – | inactive: 9.75% [at 46.1 µM]
60 | CNC(=O)COC(=O)c1ccc(NS(=O)(=O)c2ccc3c(c2)OCCO3)cc1 | inconclusive: 35.5 µM [activator, single point] | –
61 | CCOc1ccc(C2=NNC(c3cccs3)=Nc3ccc(OC)cc32)cc1OCC | – | inactive: -17% [at 46.1 µM]
62 | O=C(c1cccc(S(=O)(=O)N2CCc3ccccc3C2)c1)N1CCN(c2ccccc2)CC1 | inconclusive: 25.1 µM [inhibitor, single point] | –
63 | CC(C)c1nnc(NC(=O)CCC(=O)NC2CCCCCCC2)s1 | – | inactive: 15.5%
64 | COc1ccc(NC(=S)N2CCNC(=O)C2CC(=O)Nc2ccc(C)cc2)cc1 (stereo unspecified) | inconclusive: 0.562 µM [activator, full curve, poor fit] | –
65 | Cc1cccc2sc(NC(=O)c3cccc(S(=O)(=O)N4CCc5ccccc54)c3)nc12 | – | inactive: -11.4%
66 | COCCN1CC(=O)N(c2cccc(C)c2C)C(c2ccc(Cl)cc2)C1=O (stereo unspecified) | inconclusive: 1.26 µM [inhibitor, partial curve, poor fit] | –
